Measurements reported in PubChem BioAssay AID686943 (Drosophila RNAi Screening Center, 2013).

Purpose: 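Knockdowns that increase or decrease active ERK after insulin receptor stimulation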 (primary screen)
System: Drosophila S2R+ haemocyte-like cells expressing YFP-tagged ERK (Rolled)
Reagents: long dsRNA against Drosophila genes
Challenge: insulin stimulation versus unstimulated cells; dose and duration not given
Read-out: 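Per-plate z-scores of phospho-ERK immunostaining normalised to YFP-tagged ERK, measured with and without insulin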
Reading the numbers: replicate 1, z-score of dpERK with insulin and replicate 2, z-score of dpERK with insulin: higher = more active ERK per ERK-YFP after insulin; replicate 1, z-score of dpERK under basal conditions: higher = more basal active ERK per ERK-YFP; replicate 1, z-score of ERK-YFP with insulin: higher = more YFP-tagged ERK signal
The screen tested about 23,000 reagents; this is a random part of those with a known target gene and a result. 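Extra replicates exist only for a retested subset of genes; insulin dose and duration not given; both raised and lowered dpERK matter.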 The numbers tell different reagents against one gene apart. Reagent sequences are not shown. Not stated in the record: the amount of reagent, the time to read-out.

no.	Target gene	reagent no.	replicate 1, z-score of dpERK with insulin	replicate 2, z-score of dpERK with insulin	replicate 1, z-score of dpERK under basal conditions	replicate 1, z-score of ERK-YFP with insulin
1	CG15742	1	0.08	0.67	-1.33	0.16
2	CG5805	1	-0.07	-0.59	-0.29	0.49
3	CG15539	1	-0.24	0.12	0.58	-0.05
4	Ogg1	1	0.47	0.35	-0.42	-0.08
5	Oat	1	-1.35	-0.26	0.68	0.65
6	Def	1	0.22	-0.09	0.76	0.25
7	CG11698	1	0.96	0.42	2.27	-0.14
8	Kots	1	-0.06	0.55	-0.52	0.88
9	caps	1	0.02	-0.82	-0.39	0.08
10	caps	2	-0.77	-0.92	-0.57	-0.58
11	CG14443	1	0.1	0.67	0.79	0.35
12	Adar	1	0.69	-0.12	0.41	-0.2
13	CG15337	1	0.49	-0.8	-0.52	0.22
14	CG15337	2	1.32	-1.62	0.33	1.05

3 entries from above, arranged by “replicate 2, z-score of dpERK with insulin”, descending.
Target gene	reagent no.	replicate 1, z-score of dpERK with insulin	replicate 2, z-score of dpERK with insulin	replicate 1, z-score of dpERK under basal conditions	replicate 1, z-score of ERK-YFP with insulin
Ogg1	1	0.47	0.35	-0.42	-0.08
CG15539	1	-0.24	0.12	0.58	-0.05
Oat	1	-1.35	-0.26	0.68	0.65

Continued:
no.	Target gene	reagent no.	replicate 1, z-score of dpERK with insulin	replicate 2, z-score of dpERK with insulin	replicate 1, z-score of dpERK under basal conditions	replicate 1, z-score of ERK-YFP with insulin
15	babos	1	0.6	-0.28	0.51	-0.58
16	babos	2	-0.69	0.63	1.07	0.3
17	Fer3HCH	1	-0.03	0.44	0.23	0.48
18	kirre	1	-0.25	-0.25	-0.17	0.21
19	Edem1	1	-0.55	0.74	-0.29	0.6
20	Ref1	1	-0.13	1.77	-0.54	0.14
21	Ref1	2	1.01	1.99		-0.17
22	CG9784	1	0.14	0.78	-0.56	-0.08
23	Usp15-31	1	0.9	1.38	1.62	1.47
24	Usp15-31	2	-3.3	-3.11	-1.35	0.59
